From article PMC9909464, “The human MRS2 magnesium-binding domain is a regulatory feedback switch for channel activity” (Life Science Alliance, 2023)
Results are given in words; binding and its absence hold for the method and conditions named.

Legend:
[1] = target: full-length human MRS2 excluding the mitochondrial targeting sequence, MRS2_(58–443) (human) (UniProt Q9HD23); experiment: dynamic light scattering; as a9 but with 5 mM CoCl2; both purified
[2] = target: human MRS2 amino terminal domain, MRS2_(58–333) (human) (UniProt Q9HD23); experiment: condition: only with 5 mM CaCl2, injected at 2.5 and 5.0 mg/ml; SEC-MALS; as a1 but 5 mM CaCl2 in running buffer and sample; injected at 2.5 and 5.0 mg/ml; both purified
[3] = target: human MRS2 amino terminal domain, MRS2_(58–333) (human) (UniProt Q9HD23); experiment: dynamic light scattering; as a6 but with 5 mM CaCl2, 20 and 37°C; both purified
[4] = target: human MRS2 amino terminal domain, MRS2_(58–333) (human) (UniProt Q9HD23); experiment: dynamic light scattering; as a6 but with 5 mM MgCl2, 20 and 37°C; both purified
[5] = target: human MRS2 amino terminal domain, MRS2_(58–333) (human) (UniProt Q9HD23); experiment: condition: only with 5 mM MgCl2, injected at 2.5 mg/ml or less; SEC-MALS; as a1 but 5 mM MgCl2 in running buffer and sample; injected at 2.5 mg/ml or less; both purified
[6] = target: human MRS2 amino terminal domain, MRS2_(58–333) (human) (UniProt Q9HD23); experiment: condition: only with 10 mM MgCl2, injected at 5 mg/ml; SEC-MALS; as a1 but 10 mM MgCl2 in running buffer and sample; injected at 5 mg/ml; both purified

| binding [1] | binding [2] | binding [3] | binding [4] | binding [5] | binding [6] | Binder |
| --- | --- | --- | --- | --- | --- | --- |
| no binding (condition: with 5 mM CoCl2) |  |  |  |  |  | full-length human MRS2 excluding the mitochondrial targeting sequence, MRS2_(58–443) (natural protein, UniProt Q9HD23 58-443, looked up, in CHAPS micelles in the assay; also called full-length MRS2; source: E. coli BL21 (DE3), purified as the NTD with 10 mM CHAPS in elution and SEC buffers; not shown: His6, N-terminal, cleaved) DRLRVAGEVHRFRTSDVSQATLASVAPVFTVTKFDKQGNVTSFERKKTELYQELGLQARDLRFQHVMSITVRNNRIIMRMEYLKAVITPECLLILDYRNLNLEQWLFRELPSQLSGEGQLVTYPLPFEFRAIEALLQYWINTLQGKLSILQPLILETLDALVDPKHSSVDRSKLHILLQNGKSLSELETDIKIFKESILEILDEEELLEELCVSKWSDPQVFEKSSAGIDHAEEMELLLENYYRLADDLSNAARELRVLIDDSQSIIFINLDSHRNVMMRLNLQLTMGTFSLSLFGLMGVAFGMNLESSLEEDHRIFWLITGIMFMGSGLIWRRLLSFLGRQLEAPLPPMMASLPKKTLLADRSMELKNSLRLDGLGSGRSILTNR |
|  | no binding | no binding (condition: with 5 mM CaCl2) | no binding (condition: with 5 mM MgCl2) | no binding | no binding | human MRS2 amino terminal domain, MRS2_(58–333) (domain or fragment, UniProt Q9HD23 58-333, looked up, Cloned into pET-28a by NdeI and XhoI; also called MRS2 NTD; NTD; source: E. coli BL21 (DE3), purified (nickel-NTA, thrombin cleavage, SEC S200); not shown: His6, N-terminal, cleaved) DRLRVAGEVHRFRTSDVSQATLASVAPVFTVTKFDKQGNVTSFERKKTELYQELGLQARDLRFQHVMSITVRNNRIIMRMEYLKAVITPECLLILDYRNLNLEQWLFRELPSQLSGEGQLVTYPLPFEFRAIEALLQYWINTLQGKLSILQPLILETLDALVDPKHSSVDRSKLHILLQNGKSLSELETDIKIFKESILEILDEEELLEELCVSKWSDPQVFEKSSAGIDHAEEMELLLENYYRLADDLSNAARELRVLIDDSQSIIFINLDSHRN |
